These are yes or no findings as the source states them, for the method shown. For part of these data: A result given as binding can be weak or reduced; the word gives no strength.
Experiments:
[1] = target: human/mouse chimeric LRP6 propeller domain 1 construct 1c; assay: FACS on cells expressing the chimeric construct
LRP6 D264->N = assay: FACS on cells transfected with LRP6 D264->N, FSC-Height against FL2-Height
LRP6 I236->T = assay: FACS on cells transfected with LRP6 I236->T, FSC-Height against FL2-Height
LRP6 S243->T = assay: FACS on cells transfected with LRP6 S243->T (as labelled; the text calls it S243N)
LRP6 1a = assay: FACS on cells transfected with the human/mouse chimera LRP6 1a, FSC-Height against FL2-Height PE
LRP6 1b = assay: FACS on cells transfected with the human/mouse chimera LRP6 1b, FSC-Height against FL2-Height PE

binding [1]: no binding
binding (LRP6 D264->N): binds
binding (LRP6 I236->T): binds
binding (LRP6 S243->T): no binding (tested: not stated)
binding (LRP6 1a): binds
binding (LRP6 1b): binds
B1: anti-LRP6 monoclonal antibody 135.16 (antibody, V domains shown)
VH: QVQLQQSGAELVKPGASVKMSCKAFGYTFTSYPIEWMKQNHGKSLEWIGNFHPYNDNTKYNEKFKGKAKLTVEKSSSTVYLELSRSTSDDSAVYYCARGYSGNYFSAMDYWGQGTSVTVSS
VL: DIVMTQSQKFMSTSVGDRVSITCKASQNVRNDVAWYQQKPGQSPKSLIYLASNRHTGVPDRFTGSGSGTDFTLTISNVQSEDLADYFCLQHWNYPYTFGGGTKLEIKR

Reference: patent publication US20140220040A1
